These are yes or no findings as the source states them, for the method shown. Some entries that bind do so weakly or less than the wild type. Where a sequence is shown, tags or fusion partners need not be part of it.
What was measured:
[1] = target: T1, BD-Atg11 CTR (a.a. 854-1178) (S. cerevisiae) (UniProt Q12527); assay: two-hybrid; BD-Atg11 and mutants (bait) with AD-Atg19 (prey) in the MKO strain; growth on SMD -ura, -leu, -ade plates
T1 sequence: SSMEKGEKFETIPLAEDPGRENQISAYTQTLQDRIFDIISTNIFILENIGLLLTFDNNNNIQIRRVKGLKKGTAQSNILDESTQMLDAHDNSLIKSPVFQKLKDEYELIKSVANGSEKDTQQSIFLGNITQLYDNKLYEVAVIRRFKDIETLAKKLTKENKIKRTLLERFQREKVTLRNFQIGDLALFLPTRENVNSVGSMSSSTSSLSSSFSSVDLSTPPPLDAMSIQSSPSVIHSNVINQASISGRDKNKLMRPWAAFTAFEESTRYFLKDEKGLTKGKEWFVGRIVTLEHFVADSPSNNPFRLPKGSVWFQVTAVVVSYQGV

[2] = target: T2, BD-Atg11 (wild type) (S. cerevisiae) (UniProt Q12527); assay: as above
T2 sequence: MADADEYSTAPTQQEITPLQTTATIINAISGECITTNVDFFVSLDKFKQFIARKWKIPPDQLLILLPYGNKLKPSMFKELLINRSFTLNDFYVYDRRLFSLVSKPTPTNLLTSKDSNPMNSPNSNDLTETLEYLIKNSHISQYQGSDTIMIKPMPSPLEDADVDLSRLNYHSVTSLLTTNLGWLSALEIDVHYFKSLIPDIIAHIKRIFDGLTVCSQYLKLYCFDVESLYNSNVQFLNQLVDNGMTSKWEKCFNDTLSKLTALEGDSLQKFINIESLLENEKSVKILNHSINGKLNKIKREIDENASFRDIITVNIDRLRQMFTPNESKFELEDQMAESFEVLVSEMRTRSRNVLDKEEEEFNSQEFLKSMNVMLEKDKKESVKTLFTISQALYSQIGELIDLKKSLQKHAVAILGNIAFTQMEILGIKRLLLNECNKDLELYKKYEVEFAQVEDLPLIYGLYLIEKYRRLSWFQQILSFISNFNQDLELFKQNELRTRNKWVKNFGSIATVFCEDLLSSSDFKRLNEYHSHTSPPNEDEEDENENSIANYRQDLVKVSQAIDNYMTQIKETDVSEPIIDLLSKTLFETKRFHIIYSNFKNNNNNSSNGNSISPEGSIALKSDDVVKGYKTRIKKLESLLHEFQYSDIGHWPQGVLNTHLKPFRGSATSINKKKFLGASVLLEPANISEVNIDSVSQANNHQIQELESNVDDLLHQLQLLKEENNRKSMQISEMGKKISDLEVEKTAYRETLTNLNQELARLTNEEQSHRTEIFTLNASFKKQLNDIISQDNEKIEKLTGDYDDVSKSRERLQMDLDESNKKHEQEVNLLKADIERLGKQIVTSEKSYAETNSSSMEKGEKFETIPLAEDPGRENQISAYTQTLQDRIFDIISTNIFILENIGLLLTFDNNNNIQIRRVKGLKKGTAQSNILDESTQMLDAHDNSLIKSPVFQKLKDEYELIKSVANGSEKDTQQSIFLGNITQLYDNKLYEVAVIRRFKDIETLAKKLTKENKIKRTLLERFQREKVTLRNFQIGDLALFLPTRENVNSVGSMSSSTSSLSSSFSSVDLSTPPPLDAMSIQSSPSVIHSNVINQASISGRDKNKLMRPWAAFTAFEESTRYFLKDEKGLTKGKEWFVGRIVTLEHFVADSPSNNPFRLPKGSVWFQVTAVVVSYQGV

[3] = target: T1, BD-Atg11 CTR (a.a. 854-1178) (S. cerevisiae); assay: two-hybrid; quantitative Y2H assay in log-phase liquid cultures expressing BD-Atg11 mutants and AD-Atg19
[4] = target: T2, BD-Atg11 (wild type) (S. cerevisiae); assay: as above
[5] = target: T1, BD-Atg11 CTR (a.a. 854-1178) (S. cerevisiae); assay: two-hybrid; BD-Atg11 mutants (bait) with AD-Atg19 (prey) in the WT Y2H strain PJ69-4A; plates
[6] = target: T2, BD-Atg11 (wild type) (S. cerevisiae); assay: as above

binding [1]: binds
binding [2]: binds
binding [3]: binds
binding [4]: binds
binding [5]: binds
binding [6]: binds
B1: AD-Atg19 (protein, UniProt P35193 1-415)
chain: MNNSKTNQQMNTSMGYPLTVYDECNKFQLIVPTLDANIMLWCIGQLSLLNDSNGCKHLFWQPNDKSNVRILLNNYDYGHLFKYLQCQRKCSVYIGEGTLKKYNLTISTSFDNFLDLTPSEEKESLCREDAHEDPVSPKAGSEEEISPNSTSNVVVSRECLDNFMKQLLKLEESLNKLELEQKVTNKEPNHRISGTIDIPEDRSELVNFFTELKTVKQLEDVFQRYHDYERLSQECDSKTEIASDHSKKETKIEVEPPNERSLQITMNQRDNSLYFQLFNNTNSVLAGNCKLKFTDAGDKPTTQIIDMGPHEIGIKEYKEYRYFPYALDLEAGSTIEIENQYGEVIFLGKYGSSPMINLRPPSRLSAESLQASQEPFYSFQIDTLPELDDSSIISTSISLSYDGDDNEKALTWEEL

Source: article PMC8805157 (2021)
